# Reference: patent US20210244698A1, “DIFFUSION ENHANCING COMPOUNDS AND THEIR USE WITH THROMBECTOMY AND EMBOLECTOMY AND OTHER VASCULAR DISEASE PROCEDURES” (DIFFUSION PHARMACEUTICALS LLC, priority 2018, published 2021)
# For at least one compound, name, drawing or mass did not settle the structure.
# How the values were obtained:
# [1] = Solubility of TSC in water / aqueous solution with cyclodextrin; assay type: physicochemical; conditions: with gamma-cyclodextrin
# Text: The use of gamma-cyclodextrin with TSC increases the solubility of TSC in water by 3-7 times. […] The solutions need not be equal-molar. The incorporation of the gamma cyclodextrin also allows for TSC to be absorbed into the blood stream when injected intramuscularly.
# A trans carotenoid such as TSC can be formulated with a cyclodextrin as noted above and a non-metabolized sugar such as mannitol (e.g. d-mannitol to adjust the osmotic pressure to be the same as that of blood). Solutions containing over 20 mg TSC/ml of solution can be made this way. This solution can be added to isotonic saline or to other isotonic solutions in order to dilute it and still maintain the proper osmolality.
# [2] = cited from earlier work
smiles,measurement,setting,value
"CC(/C=C/C=C(\C)C(=O)[O-])=C\C=C\C=C(C)\C=C\C=C(/C)C(=O)[O-].[Na+].[Na+] [TSC, trans sodium crocetinate]",increase of the solubility of TSC in water,[1],3-7 times
same,effect on diffusivity of oxygen in water,[2],increase the diffusivity of oxygen in water
